According to publication PMC4385868:
Results are given in words; binding and its absence hold for the method and conditions named. In cells and extracts the contact can be indirect. A result given as binding can be weak or reduced; the word gives no strength.

Biological target: T1, endogenous Vav1 (human (endogenous in H358 and H441)) (UniProt P15498)
T1 sequence: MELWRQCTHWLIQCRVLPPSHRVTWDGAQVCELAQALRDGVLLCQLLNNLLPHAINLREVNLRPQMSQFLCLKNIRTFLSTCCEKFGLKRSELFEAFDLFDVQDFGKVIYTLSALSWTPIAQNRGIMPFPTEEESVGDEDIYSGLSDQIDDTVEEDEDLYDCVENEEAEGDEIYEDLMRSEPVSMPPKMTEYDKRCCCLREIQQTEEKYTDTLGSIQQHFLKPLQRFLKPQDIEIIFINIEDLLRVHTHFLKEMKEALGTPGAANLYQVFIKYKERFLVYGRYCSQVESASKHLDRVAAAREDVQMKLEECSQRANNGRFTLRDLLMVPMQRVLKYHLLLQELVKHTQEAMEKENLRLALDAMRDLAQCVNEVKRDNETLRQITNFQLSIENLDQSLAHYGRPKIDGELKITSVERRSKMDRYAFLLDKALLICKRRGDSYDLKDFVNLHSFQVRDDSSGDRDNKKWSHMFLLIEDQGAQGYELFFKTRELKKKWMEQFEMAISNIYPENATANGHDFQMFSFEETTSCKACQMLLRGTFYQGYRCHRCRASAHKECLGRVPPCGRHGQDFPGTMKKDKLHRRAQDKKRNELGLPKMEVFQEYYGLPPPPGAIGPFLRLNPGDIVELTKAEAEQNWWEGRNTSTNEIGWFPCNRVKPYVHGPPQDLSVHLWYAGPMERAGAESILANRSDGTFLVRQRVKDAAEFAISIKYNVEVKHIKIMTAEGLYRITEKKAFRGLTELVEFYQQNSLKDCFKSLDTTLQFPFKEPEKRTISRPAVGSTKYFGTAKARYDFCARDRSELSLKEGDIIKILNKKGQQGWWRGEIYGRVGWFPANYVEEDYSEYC
Assay: co-IP; total cell extracts of H358 and H441 cells precipitated with anti-Vav1 Ab or control IgG (1% NP-40 lysis buffer); partners detected by sequential immunoblotting

binding	Substance
binds	E-cadherin (human (endogenous in H358 and H441))
binds	α-catenin (human (endogenous in H358 and H441))
